Test results reported in the supplement of paper PMC9744312.
Counter-ions that a name gives are not always drawn. Some of the results follow. Single values of this set are uncertain.

The compounds below were run on Peyronie's disease tunica albuginea primary fibroblasts (assay: inhibition of TGF-beta1-induced alpha-SMA expression (myofibroblast transformation), relative to TGF-beta1-only and untreated controls; higher = stronger inhibition of myofibroblast transformation). Conditions: 10 µM; TGF-beta1 10 ng/mL; 72 h.

Q: `CCCCC(=O)O[C@]1(C(=O)CO)[C@@H](C)C[C@H]2[C@@H]3CCC4=CC(=O)C=C[C@]4(C)[C@@]3(F)[C@@H](O)C[C@@]21C` [Betamethasone Valerate] was tested. Which “inhibition of TGF-beta1-induced alpha-SMA expression” value (“inhibition” for short) did it give?
A: 67.8%

Q: With `CC(=O)OCC(=O)[C@@]1(O)CC[C@H]2[C@@H]3CCC4=CC(=O)CC[C@]4(C)[C@H]3C(=O)C[C@@]21C` [Cortisone acetate] as the compound, how does the “inhibition” value read?
A: 12.5%

Q: Which “inhibition” value does the source give for `FC(F)(F)c1ccc(/C=C/c2nc(COc3ccc(CCCCn4ccnn4)cc3)co2)cc1` [Mubritinib (TAK 165)] here?
A: 36.2%

Q: For `Nc1ccn(C[C@@H](CO)OCP(=O)(O)O)c(=O)n1` [Cidofovir], which “inhibition” value is on record?
A: 6.82%

Q: `CN(C)CCCOc1nn(Cc2ccccc2)c2ccccc12` [Benzydamine HCl] was tested. Which “inhibition” value did it give?
A: -1.61%

Q: Which “inhibition” value does the source give for `COc1cc2nc(N3CCN(C(=O)C4CCCO4)CC3)nc(N)c2cc1OC` (stereo unspecified) [Terazosin HCl Dihydrate] here?
A: 20.1%

Q: With `COc1cc2nc(N3CCN(C(=O)C4CCCO4)CC3)nc(N)c2cc1OC` (stereo unspecified) [Terazosin HCl] as the compound, how does the “inhibition” value read?
A: -28.7%

Q: Which “inhibition” value does the source give for `Oc1ccc(O)cc1` [Hydroquinone] here?
A: 45.8%

Q: With `NC(=O)[C@@H]1CC[C@@H]2CN1C(=O)N2OS(=O)(=O)O` [Avibactam sodium] as the compound, how does the “inhibition” value read?
A: 0.177%

Q: `C[N+]1(C)CCC(=C(c2ccccc2)c2ccccc2)CC1` [Diphemanil Methylsulfate] was tested. Which “inhibition” value did it give?
A: 8.98%

Q: `CN(C)CCC=C1c2ccccc2C=Cc2ccccc21` [Cyclobenzaprine HCl] was tested. Which “inhibition” value did it give?
A: 17.2%

Q: Which “inhibition” value does the source give for `CN(C)CCc1c[nH]c2ccc(C[C@H]3COC(=O)N3)cc12` [Zolmitriptan] here?
A: 0.111%

Q: Which “inhibition” value does the source give for `O=c1[nH]c(=O)n([C@H]2C[C@H](O)[C@@H](CO)O2)cc1F` [Floxuridine] here?
A: -9.69%

Q: `CNNCc1ccc(C(=O)NC(C)C)cc1` [Procarbazine HCl] was tested. Which “inhibition” value did it give?
A: 14.7%

Q: With `COc1cc(C)c(/C=C/C(C)=C/C=C/C(C)=C/C(=O)O)c(C)c1C` [Acitretin] as the compound, how does the “inhibition” value read?
A: -31.7%

Q: For `CC(C)OC(=O)CCC/C=C\C[C@@H]1[C@@H](CC[C@@H](O)CCc2ccccc2)[C@H](O)C[C@@H]1O` [Latanoprost], which “inhibition” value is on record?
A: 50.1%

Q: For `CC(c1cc2ccccc2s1)N(O)C(N)=O` (stereo unspecified) [Zileuton], which “inhibition” value is on record?
A: 45.6%

Q: For `NC(=O)c1ncn([C@@H]2O[C@H](CO)[C@@H](O)[C@H]2O)c1N` [AICAR (Acadesine)], which “inhibition” value is on record?
A: -14.6%

Q: With `CCC(=O)O[C@H]1[C@H](O[C@@H]2[C@@H](C)[C@H](O[C@H]3C[C@@](C)(OC)[C@@H](O)[C@H](C)O3)[C@@H](C)C(=O)O[C@H](CC)[C@@](C)(O)[C@H](O)[C@@H](C)C(=O)[C@H](C)C[C@@]2(C)O)O[C@H](C)C[C@@H]1N(C)C` [Erythromycin estolate] as the compound, how does the “inhibition” value read?
A: 69.3%

Q: For `CCn1cc(C(=O)O)c(=O)c2cc(F)c(N3CCN(C)CC3)cc21` [Pefloxacin Mesylate], which “inhibition” value is on record?
A: -2.54%

Q: How did the “inhibition” value turn out when `CCn1cc(C(=O)O)c(=O)c2cc(F)c(N3CCN(C)CC3)cc21` [Pefloxacin Mesylate Dihydrate] was run?
A: -2.68%

Q: `C[C@@H]1O[C@@H]1P(=O)(O)O` [Fosfomycin Disodium] was tested. Which “inhibition” value did it give?
A: -7.23%

Q: With `C[C@@H]1O[C@@H]1P(=O)(O)O` [Fosfomycin Tromethamine] as the compound, how does the “inhibition” value read?
A: 2.16%

Q: With `C[C@@H]1CN(c2c(F)c(N)c3c(=O)c(C(=O)O)cn(C4CC4)c3c2F)C[C@H](C)N1` [Sparfloxacin] as the compound, how does the “inhibition” value read?
A: 14%

Q: Which “inhibition” value does the source give for `CC1(C)[C@@H](O[C@H]2O[C@H](C(=O)O)[C@@H](O)[C@H](O)[C@H]2O[C@@H]2O[C@H](C(=O)O)[C@@H](O)[C@H](O)[C@H]2O)CC[C@]2(C)[C@H]3C(=O)C=C4[C@@H]5C[C@@](C)(C(=O)O)CC[C@]5(C)CC[C@@]4(C)[C@]3(C)CC[C@@H]12` [Ammonium Glycyrrhizinate] here?
A: 2.43%

Q: How did the “inhibition” value turn out when `CCOC(=O)CCC(=O)O[C@H]1[C@H](O[C@@H]2[C@@H](C)[C@H](O[C@H]3C[C@@](C)(OC)[C@@H](O)[C@H](C)O3)[C@@H](C)C(=O)O[C@H](CC)[C@@](C)(O)[C@H](O)[C@@H](C)C(=O)[C@H](C)C[C@@]2(C)O)O[C@H](C)C[C@@H]1N(C)C` [Erythromycin Ethylsuccinate] was run?
A: 4.38%

Q: With `C[C@]12C=CC(=O)C=C1CC[C@@H]1[C@@H]2C(=O)C[C@@]2(C)[C@H]1CC[C@]2(O)C(=O)CO` [Prednisone] as the compound, how does the “inhibition” value read?
A: 19.1%

Q: How did the “inhibition” value turn out when `CS(=O)(=O)Nc1ccc([N+](=O)[O-])cc1Oc1ccccc1` [Nimesulide] was run?
A: 20.8%

Q: For `CCn1cc(C(=O)O)c(=O)c2cc(F)c(N3CCNC(C)C3)c(F)c21` (stereo unspecified) [Lomefloxacin HCl], which “inhibition” value is on record?
A: 4.14%

Q: With `CCn1cc(C(=O)O)c(=O)c2cc(F)c(N3CCNC(C)C3)c(F)c21` (stereo unspecified) [Lomefloxacin] as the compound, how does the “inhibition” value read?
A: 24.8%

Q: With `CNC(=C[N+](=O)[O-])NCCSCc1csc(CN(C)C)n1` [Nizatidine] as the compound, how does the “inhibition” value read?
A: 8.5%

Q: `OCc1ccccc1` [Benzyl alcohol] was tested. Which “inhibition” value did it give?
A: -23.8%

Q: How did the “inhibition” value turn out when `CCC1=C[C@@H]2CN(C1)Cc1c([nH]c3ccccc13)[C@@](C(=O)OC)(c1cc3c(cc1OC)N(C)[C@H]1[C@@](O)(C(=O)OC)[C@H](OC(C)=O)[C@]4(CC)C=CCN5CC[C@]31[C@@H]54)C2` [Vinorelbine Tartrate] was run?
A: 90.6%

Q: `CC(C)CN(C[C@@H](O)[C@H](Cc1ccccc1)NC(=O)O[C@H]1CCOC1)S(=O)(=O)c1ccc(N)cc1` [Amprenavir] was tested. Which “inhibition” value did it give?
A: 4.91%

Q: Which “inhibition” value does the source give for `CNCCC=C1c2ccccc2CCc2ccccc21` [Nortriptyline hydrochloride] here?
A: 56%

Q: `C[C@H]1[C@H](NC(=O)/C(=N\OC(C)(C)C(=O)O)c2csc(N)n2)C(=O)N1S(=O)(=O)O` [Aztreonam] was tested. Which “inhibition” value did it give?
A: -1.65%

Q: How did the “inhibition” value turn out when `CCc1c2c(nc3ccc(OC(=O)N4CCC(N5CCCCC5)CC4)cc13)-c1cc3c(c(=O)n1C2)COC(=O)[C@]3(O)CC` [Irinotecan HCl Trihydrate] was run?
A: 61.9%

Q: Which “inhibition” value does the source give for `Cc1ccc(/C(=C\CN2CCCC2)c2ccccn2)cc1` [Triprolidine Hydrochloride] here?
A: 15.1%

Q: `CC(C)(O/N=C(\C(=O)N[C@@H]1C(=O)N2C(C(=O)[O-])=C(C[n+]3ccccc3)CS[C@H]12)c1csc(N)n1)C(=O)O` [Ceftazidime Pentahydrate] was tested. Which “inhibition” value did it give?
A: 15.5%

Q: `CC(C)(O/N=C(\C(=O)N[C@@H]1C(=O)N2C(C(=O)[O-])=C(C[n+]3ccccc3)CS[C@H]12)c1csc(N)n1)C(=O)O` [Ceftazidime] was tested. Which “inhibition” value did it give?
A: 2.74%

Q: For `CC(C)=CCC/C(C)=C/CC/C(C)=C/CCC(=O)OC/C=C(\C)CCC=C(C)C` [Gefarnate], which “inhibition” value is on record?
A: 12.2%

Q: For `O=C(N/N=C/c1ccc([N+](=O)[O-])o1)c1ccc(O)cc1` [Nifuroxazide], which “inhibition” value is on record?
A: -23.7%

Q: With `CCOc1cc2ncc(C#N)c(Nc3ccc(OCc4ccccn4)c(Cl)c3)c2cc1NC(=O)/C=C/CN(C)C` [Neratinib (HKI-272)] as the compound, how does the “inhibition” value read?
A: 27%

Q: `Cc1cn([C@@H]2C[C@@H](O)[C@H](CO)O2)c(=O)[nH]c1=O` [Telbivudine] was tested. Which “inhibition” value did it give?
A: -0.476%

Q: `NC(=O)c1ncn([C@@H]2O[C@H](CO)[C@@H](O)[C@H]2O)c1O` [Mizoribine] was tested. Which “inhibition” value did it give?
A: 15.3%

Q: `CC(=O)Nc1c(I)c(NC(C)=O)c(I)c(C(=O)O)c1I` [Diatrizoate sodium] was tested. Which “inhibition” value did it give?
A: 60.2%

Q: Which “inhibition” value does the source give for `CCc1cc(C(N)=S)ccn1` [Ethionamide] here?
A: -21.1%

Q: `N[C@H](Cc1ccccc1)C(=O)O` [D-Phenylalanine] was tested. Which “inhibition” value did it give?
A: 15.3%

Q: `O=c1c(-c2ccc(O)cc2)coc2cc(O)cc(O)c12` [Genistein] was tested. Which “inhibition” value did it give?
A: 2.56%

Q: For `COC(=O)[C@H]1[C@H]2C[C@@H]3c4[nH]c5cc(OC)ccc5c4CCN3C[C@H]2C[C@@H](OC(=O)c2cc(OC)c(OC)c(OC)c2)[C@@H]1OC` [Reserpine], which “inhibition” value is on record?
A: 8.7%

Q: How did the “inhibition” value turn out when `CNC(=C[N+](=O)[O-])NCCSCc1ccc(CN(C)C)o1` [Ranitidine] was run?
A: 36%

Q: How did the “inhibition” value turn out when `CNC(=C[N+](=O)[O-])NCCSCc1ccc(CN(C)C)o1` [Ranitidine Hydrochloride] was run?
A: -18.4%

Q: Which “inhibition” value does the source give for `CC(C)C[C@H](NC(=O)CNC(=O)c1cc(Cl)ccc1Cl)B(O)O` [Ixazomib (MLN2238)] here?
A: > 100%

Q: Which “inhibition” value does the source give for `CC(C)(CO)[C@@H](O)C(=O)NCCCO` [D panthenol] here?
A: 0.846%

Q: Which “inhibition” value does the source give for `N#C[C@@H]1CCCN1C(=O)CNC12CC3CC(CC(O)(C3)C1)C2` [Vildagliptin (LAF-237)] here?
A: 11.2%

Q: For `CCC(=O)NS(=O)(=O)c1ccc(-c2c(-c3ccccc3)noc2C)cc1` [Parecoxib Sodium], which “inhibition” value is on record?
A: 42.7%

Q: Which “inhibition” value does the source give for `CCC(=O)NS(=O)(=O)c1ccc(-c2c(-c3ccccc3)noc2C)cc1` [Parecoxib] here?
A: 17.3%

Q: Which “inhibition” value does the source give for `N[C@@H]1CN(c2c(F)cc3c(=O)c(C(=O)O)cn([C@@H]4C[C@@H]4F)c3c2Cl)CC12CC2` [Sitafloxacin Hydrate] here?
A: 19.5%

Q: Which “inhibition” value does the source give for `CNC[C@H](O)c1cccc(O)c1` [Phenylephrine HCl] here?
A: 36.3%

Q: How did the “inhibition” value turn out when `CO[C@H]1C[C@@H]2CC[C@@H](C)[C@@](O)(O2)C(=O)C(=O)N2CCCC[C@H]2C(=O)O[C@H]([C@H](C)C[C@@H]2CC[C@@H](O)[C@H](OC)C2)CC(=O)[C@H](C)/C=C(\C)[C@@H](O)[C@@H](OC)C(=O)[C@H](C)C[C@H](C)/C=C/C=C/C=C/1C` [Rapamycin (Sirolimus)] was run?
A: -49.4%

Q: With `NS(=O)(=O)c1ccc(C(=O)O)cc1` [Carzenide] as the compound, how does the “inhibition” value read?
A: -22.3%

Q: How did the “inhibition” value turn out when `Cc1nc(C)c(Cl)c(O)c1Cl` [Clopidol] was run?
A: 26.1%

Q: `O=C(O)P(=O)(O)O` [Foscarnet Sodium] was tested. Which “inhibition” value did it give?
A: 25.4%

Q: With `N=C(N)NCCC[C@@H](NC(=O)[C@@H]1CCCN1C(=O)[C@@H]1CSSCCC(=O)N[C@@H](Cc2ccc(O)cc2)C(=O)N[C@@H](Cc2ccccc2)C(=O)N[C@@H](CCC(N)=O)C(=O)N[C@@H](CC(N)=O)C(=O)N1)C(=O)NCC(N)=O` [Desmopressin Acetate] as the compound, how does the “inhibition” value read?
A: -1.26%

Q: With `CC(C)NCC(O)c1ccc(NS(C)(=O)=O)cc1` (stereo unspecified) [Sotalol HCl] as the compound, how does the “inhibition” value read?
A: 15.2%

Q: For `C#C[C@]1(O)CC[C@H]2[C@@H]3CCc4cc(OC)ccc4[C@H]3CC[C@@]21C` [Mestranol], which “inhibition” value is on record?
A: -3.75%
